Laboratory results as given in PubChem BioAssay AID1671190 (National Center for Advancing Translational Sciences (NCATS), 2021).
About 6,100 (1.1%) of roughly 580,000 compounds were called active. Inconclusive results, whose numbers are uncertain, are shown with a selection of clear calls. Calls follow the shape of the dose curve; as a rule, active = well fitted inhibition curve with a large enough effect; inconclusive = small, poorly fitted or top-dose-only effect, or another doubt; inactive = no such curve, though single readings can be large or run the other way. A potency beside an inconclusive call is a rough fit, not a confirmed value.

Sequences of proteins named here, by UniProt entry; tags and fusion partners are left off.
UniProt P18054, whole entry, looked up: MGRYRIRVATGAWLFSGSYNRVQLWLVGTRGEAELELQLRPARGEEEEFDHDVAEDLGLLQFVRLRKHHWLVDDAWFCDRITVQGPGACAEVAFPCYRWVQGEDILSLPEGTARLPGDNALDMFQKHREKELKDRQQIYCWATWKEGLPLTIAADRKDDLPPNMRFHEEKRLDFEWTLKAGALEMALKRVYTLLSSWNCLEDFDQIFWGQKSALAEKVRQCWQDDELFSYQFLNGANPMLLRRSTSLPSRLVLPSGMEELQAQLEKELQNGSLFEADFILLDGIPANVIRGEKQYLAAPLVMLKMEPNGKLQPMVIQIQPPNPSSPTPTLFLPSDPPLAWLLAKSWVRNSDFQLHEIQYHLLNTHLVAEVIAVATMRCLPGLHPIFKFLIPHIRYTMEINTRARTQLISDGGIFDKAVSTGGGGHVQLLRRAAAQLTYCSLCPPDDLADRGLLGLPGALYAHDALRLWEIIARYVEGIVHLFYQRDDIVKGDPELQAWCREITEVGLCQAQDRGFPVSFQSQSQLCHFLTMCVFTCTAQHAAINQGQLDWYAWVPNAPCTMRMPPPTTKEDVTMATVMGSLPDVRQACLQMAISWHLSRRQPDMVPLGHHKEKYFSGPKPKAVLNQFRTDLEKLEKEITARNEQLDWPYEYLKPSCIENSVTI

Target: Polyunsaturated fatty acid lipoxygenase ALOX12 (Homo sapiens) (UniProt P18054)
Assay: Primary qHTS assay for inhibitors of human arachidonate 12S-lipoxygenase (ALOX12): Round 2
Settings: purified 12hLO, xylenol orange hydroperoxide absorbance; activity change, negative = inhibition: at 108 µM (top of the series) unless noted
In short: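 Hydroperoxide product was detected by ferrous iron/xylenol orange as the 573 to 405 nm absorbance ratio. Arachidonic acid at 40 uM (final) was turned over for 30 min at room temperature by 150 nM human 12hLO, pH 7.0 Hepes buffer, after 15 min compound preincubation.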
% is scaled to controls: 0 for no effect and ±100 for the full control effect; potency is read from the fitted curve at half-maximal effect.

**Q.** How did the Potency turn out when `CSc1cccc(NC(=O)NCc2ccc(Cl)cc2Cl)c1` was run?
**A.** inactive

**Q.** Which Potency does the source give for `NS(=O)(=O)c1ccc(N=Nc2ccc(=O)[nH]c2O)cc1` here?
**A.** inconclusive: 39.8 µM [inhibitor, partial curve, poor fit]

**Q.** For `O=C(Nc1cc(Cl)ccc1N1CCCC1)C1=NN(c2ccccc2)C(=O)CC1`, which Potency is on record?
**A.** inconclusive: 50.1 µM [inhibitor, partial curve, poor fit]

**Q.** `Cc1nc(SCC(N)=O)c([N+](=O)[O-])[nH]1` was tested. Which Potency did it give?
**A.** inconclusive: 50.1 µM [inhibitor, partial curve, poor fit]

**Q.** How did the Potency turn out when `COC(=O)c1ccc(NC(=S)NC(=O)c2c(-c3ccccc3)noc2C)cc1` was run?
**A.** inactive

**Q.** For `CCOc1ccc(C(=O)N2CCC(C(=O)c3ccc4c(c3)OCCO4)CC2)cc1`, which Potency is on record?
**A.** inactive

**Q.** How did the Potency turn out when `O=C(N=C1c2ccccc2CN1c1cccc(Cl)c1)c1cccnc1` was run?
**A.** inconclusive: 79.4 µM [inhibitor, single point]

**Q.** `CN(C)/C=N/C1=C(C#N)C(c2cccs2)c2ccc3ccccc3c2O1` (configuration not stated) was tested. Which Potency did it give?
**A.** inconclusive: 50.1 µM [inhibitor, partial curve, poor fit]

**Q.** With `Cc1cccc(NC(=O)C(C)n2cnc3c2c(=O)n(C)c(=O)n3C)c1` (configuration not stated) as the compound, how does the Potency read?
**A.** inactive

**Q.** Which Potency does the source give for `CCN1CCN(c2ncc3c(n2)CCN(Cc2sccc2C)C3)CC1` here?
**A.** inconclusive: 50.1 µM [inhibitor, partial curve, poor fit]

**Q.** Which Potency does the source give for `CS(=O)(=O)N1CCC(C(=O)N2CCc3ccccc3C2)CC1` here?
**A.** inactive

**Q.** `CC(C)(C)NC(=O)c1ccc(COc2ccccc2Br)o1` was tested. Which Potency did it give?
**A.** inconclusive: 100 µM [inhibitor, single point]

**Q.** Which Potency does the source give for `NC(=O)c1cc([N+](=O)[O-])c(Cl)cc1NCc1ccncc1` here?
**A.** inconclusive: 39.8 µM [inhibitor, partial curve, poor fit]

**Q.** `Cc1sc2ncnc(SCC(=O)N3CCCC(C(N)=O)C3)c2c1C` (configuration not stated) was tested. Which Potency did it give?
**A.** inconclusive: 158 µM [inhibitor, partial curve, poor fit]

**Q.** How did the Potency turn out when `Cc1nnc(SCCn2c(N3CCC(C)CC3)nc3c2c(=O)n(C)c(=O)n3C)s1` was run?
**A.** inactive

**Q.** `CCCN1CCN(CCCNC(=O)c2ccc3c(c2)NC(=O)c2ccccc2S3)CC1` was tested. Which Potency did it give?
**A.** inactive

**Q.** Which Potency does the source give for `O=C(COC(=O)c1ccc(-c2ccc([N+](=O)[O-])cc2)o1)NC(=O)NC12CC3CC(CC(C3)C1)C2` here?
**A.** inactive

**Q.** For `C=C(C)CSC1=C(C#N)C(c2ccsc2)CC(=O)N1` (configuration not stated), which Potency is on record?
**A.** inconclusive: 50.1 µM [inhibitor, partial curve, poor fit]

**Q.** Which Potency does the source give for `CCOc1ccc(Nc2nc(C)c(NC(=O)c3ccc(C)cc3)c(Nc3ccc(OCC)cc3)n2)cc1` here?
**A.** active: 22.4 µM

**Q.** For `Cc1cccn2c(=O)nc(SCC(=O)NC3CCCC3)nc12`, which Potency is on record?
**A.** inactive

**Q.** For `O=C1c2ccccc2NC(c2csc(-c3ccccc3)n2)N1C1CC1` (configuration not stated), which Potency is on record?
**A.** inconclusive: 44.7 µM [inhibitor, single point]

**Q.** `Cc1ccc(N=Cc2nc(-c3ccco3)oc2O)cc1` was tested. Which Potency did it give?
**A.** inconclusive: 44.7 µM [inhibitor, partial curve, poor fit]

**Q.** With `CCN1CCN(CC(=O)c2c(C)[nH]c3cc(C)ccc23)CC1` as the compound, how does the Potency read?
**A.** inconclusive: 15.8 µM [inhibitor, partial curve, poor fit]

**Q.** For `CC(C)Cn1c(CN2CCN(c3ccccc3F)CC2)nc2c1c(=O)[nH]c(=O)n2C`, which Potency is on record?
**A.** inconclusive: 28.2 µM [inhibitor, partial curve, poor fit]

**Q.** How did the Potency turn out when `CN(C)C(=O)c1c(NC(=O)c2ccccc2F)sc2c1CCC(C(C)(C)C)C2` (configuration not stated) was run?
**A.** inactive

**Q.** Which Potency does the source give for `CCn1c(=O)c2cc(C(=O)N3CCN(c4cccc(OC)c4)CC3)sc2c2ccccc21` here?
**A.** inactive

**Q.** With `CCOc1ccccc1OCC(=O)Nc1cccc2cccnc12` as the compound, how does the Potency read?
**A.** inactive

**Q.** With `NC(=O)c1ccc(N2CCCCC2)c(N2C(=O)C3C4C=CC(C4)C3C2=O)c1` (configuration not stated) as the compound, how does the Potency read?
**A.** inconclusive: 89.1 µM [inhibitor, single point]

**Q.** How did the Potency turn out when `COc1ccc(OC)c(NC(=O)CSc2nc3ccsc3c(=O)n2-c2ccccc2F)c1` was run?
**A.** inconclusive: 79.4 µM [inhibitor, single point]

**Q.** With `COc1ccc(Cl)cc1Nc1nc2ccc(C(=O)c3ccccc3)cc2n2cnnc12` as the compound, how does the Potency read?
**A.** inconclusive: 63.1 µM [inhibitor, partial curve, poor fit]

**Q.** For `CC1=NN(c2ccccc2)C(=O)/C1=C/c1c(O)n(-c2ccc(F)cc2)[nH]c1=O`, which Potency is on record?
**A.** inconclusive: 56.2 µM [inhibitor, partial curve, poor fit]

**Q.** How did the Potency turn out when `CCc1ccc(C(c2ccccc2)c2c[nH]c3ccc(C)cc23)s1` (configuration not stated) was run?
**A.** inconclusive: 50.1 µM [inhibitor, partial curve, poor fit]

**Q.** With `CC(C)(CCc1ccccn1)C(=O)CCCc1ccccn1` as the compound, how does the Potency read?
**A.** inconclusive: 224 µM [inhibitor, partial curve, poor fit]

**Q.** Which Potency does the source give for `Cc1sc2ncn(CC(=O)N3CCN(c4ccccc4)CC3)c(=O)c2c1S(=O)(=O)N1CCN(c2ncccn2)CC1` here?
**A.** inactive

**Q.** `CC1CCN(c2ccc(C(=O)Nc3ccc4c(c3)OCO4)cc2[N+](=O)[O-])CC1` was tested. Which Potency did it give?
**A.** inactive

**Q.** `COC(=O)c1ccc(/C=C/C(=O)c2cccc(OC)c2)cc1` was tested. Which Potency did it give?
**A.** inactive

**Q.** With `Cc1ccc(-c2nc3cc(NS(=O)(=O)c4ccc(C)cc4)ccc3o2)cc1` as the compound, how does the Potency read?
**A.** inconclusive: 56.2 µM [inhibitor, partial curve, poor fit]

**Q.** For `CCOC(=O)C1=C(O)/C(=C/c2ccc(-c3ccccc3C(=O)O)o2)SC1=Nc1ccc(OC)cc1`, which Potency is on record?
**A.** inconclusive: 5.62 µM [inhibitor, full curve, poor fit]

**Q.** How did the Potency turn out when `CCOC(=O)Cn1nnnc1C(CC)N(Cc1cccs1)Cc1cc2cc(C)ccc2[nH]c1=O` (configuration not stated) was run?
**A.** inactive

**Q.** With `Cc1ccc(C(=O)Nc2nc(N)n(-c3ccccc3)n2)cc1` as the compound, how does the Potency read?
**A.** inconclusive: 79.4 µM [inhibitor, partial curve, poor fit]

**Q.** For `O=C(COC(=O)C1CC=CCC1C(=O)OCC(=O)c1ccc(Cl)cc1)c1ccc(Cl)cc1` (configuration not stated), which Potency is on record?
**A.** inconclusive: 28.2 µM [inhibitor, partial curve, poor fit]

**Q.** For `CC(=O)Nc1nc2ccccc2n1CCN1CCOCC1`, which Potency is on record?
**A.** inconclusive: 1.26 µM [inhibitor, full curve, poor fit]

**Q.** How did the Potency turn out when `Cc1ccccc1N1C(=O)c2ccccc2N2C(=O)c3ccccc3C12` (configuration not stated) was run?
**A.** inactive

**Q.** With `Cc1cc(C)c(NC(=O)c2ccc(C)c(S(=O)(=O)N3CCCCC3)c2)c(Cl)c1` as the compound, how does the Potency read?
**A.** inconclusive: 56.2 µM [inhibitor, partial curve, poor fit]

**Q.** How did the Potency turn out when `Cc1ccc2nc3n(c(=O)c2c1)-c1cc2ccccc2cc1C(=O)NC3Cc1ccccc1` (configuration not stated) was run?
**A.** inactive

**Q.** How did the Potency turn out when `Cc1cccc(C)c1NC(=O)CSc1ncc2c(n1)-c1ccc(Cl)cc1N(Cc1ccccc1)S2(=O)=O` was run?
**A.** inconclusive: 112 µM [inhibitor, partial curve, poor fit]

**Q.** Which Potency does the source give for `CC(C)Nc1nc(-c2ccccc2F)c2sc(-c3ccccc3)cc2n1` here?
**A.** inconclusive: 44.7 µM [inhibitor, partial curve]

**Q.** Which Potency does the source give for `COc1cccc(/C=C2\CCc3ccccc3C2=O)c1` here?
**A.** inconclusive: 7.08 µM [inhibitor, full curve, poor fit]

**Q.** Which Potency does the source give for `C=CCNC(=S)NNC(=O)CSc1nc2ccccc2s1` here?
**A.** inactive

**Q.** Which Potency does the source give for `CN(Cc1ccccc1Cl)Cc1cccn1C` here?
**A.** inconclusive: 35.5 µM [inhibitor, partial curve, poor fit]

**Q.** `CCC1(C(=O)N2CCc3ccccc3C2)CCCCC(=O)N1` (configuration not stated) was tested. Which Potency did it give?
**A.** inactive

**Q.** With `Nc1c(/C=C2/C=CC(=O)C(O)=C2)c(=O)nc2sc(CC(=O)N3CCCC3)nn12` as the compound, how does the Potency read?
**A.** inconclusive: 2.24 µM [inhibitor, full curve, poor fit]

**Q.** How did the activity change, negative = inhibition turn out when `CCCC(C)NC(=O)CSc1nc2ccccc2o1` (configuration not stated) was run?
**A.** inconclusive: -37.8% [inhibitor]

**Q.** Which Potency does the source give for `O=C(O)CCCCCNS(=O)(=O)c1cccc2c1C(=O)c1ccccc1C2=O` here?
**A.** inconclusive: 35.5 µM [inhibitor, single point]

**Q.** `N#Cc1cnc(SCC(=O)N2CCCC2)nc1N` was tested. Which Potency did it give?
**A.** inconclusive: 112 µM [inhibitor, partial curve, poor fit]

**Q.** For `COc1cccc(-n2ccnc2SCC(=O)Nc2ccc(Cl)c(Cl)c2)c1`, which Potency is on record?
**A.** inconclusive: 126 µM [inhibitor, partial curve, poor fit]

**Q.** For `C=CCn1c(SCC(=O)Nc2cccnc2Cl)nnc1-c1ccccc1F`, which Potency is on record?
**A.** inactive

**Q.** How did the Potency turn out when `N#CCCN(CCC#N)C(=O)COc1cc(Cl)ccc1C(N)=O` was run?
**A.** inconclusive: 50.1 µM [inhibitor, partial curve, poor fit]

**Q.** Which Potency does the source give for `COC(=O)C1=C(C)N(Cc2cccc(C(F)(F)F)c2)C(=NCc2cc(OC)c(OC)c(OC)c2)NC1CCc1ccccc1` (configuration not stated) here?
**A.** inconclusive: 70.8 µM [inhibitor, partial curve, poor fit]

**Q.** With `CC(C)C(=O)NN(C(=O)C(C)C)c1nc2ccccc2s1` as the compound, how does the Potency read?
**A.** inconclusive: 100 µM [inhibitor, single point]

**Q.** With `COc1ccc(-c2csc3nc(C)nc(N4CCC(C)CC4)c23)cc1OC` as the compound, how does the Potency read?
**A.** inactive

**Q.** Which Potency does the source give for `O=C(/C=C/c1ccc([N+](=O)[O-])cc1)c1ccco1` here?
**A.** inactive

**Q.** Which Potency does the source give for `Cc1ccc(C)c(N(CC(=O)N/N=C/c2ccc(-c3ccc([N+](=O)[O-])cc3)o2)S(=O)(=O)c2ccccc2)c1` here?
**A.** inactive

**Q.** `COc1cc2c(cc1OC)C(C[C@H]1CN(C(=O)c3ccco3)CC[C@H]1CC(=O)O)=NCC2` was tested. Which Potency did it give?
**A.** active: 56.2 µM

**Q.** How did the Potency turn out when `CCCN1CCc2[nH]cnc2C12CCN(C(=O)[C@H]1Cc3ccccc3CN1)CC2` was run?
**A.** inconclusive: 6.31 µM [inhibitor, partial curve, poor fit]

**Q.** Which Potency does the source give for `COc1cc(/C=C(/C(=O)c2cccs2)c2nc3ccccc3[nH]2)cc(OC)c1O` here?
**A.** inconclusive: 2 µM [inhibitor, full curve, poor fit]

**Q.** Which Potency does the source give for `COc1ccc(-c2noc(CN(C(=O)Nc3cccc4ccccc34)C(C)C)n2)cc1` here?
**A.** inactive
